Source: publication doi:10.1101/2022.03.06.483161
Results are given in words; binding and its absence hold for the method and conditions named. In cells and extracts the contact can be indirect. Here binding means that the protein was enriched with, or labelled near, the bait; the list need not be complete. Where a sequence is shown, tags or fusion partners need not be part of it.

Sequences of proteins named here, by UniProt entry; tags and fusion partners are left off.
UniProt O00570: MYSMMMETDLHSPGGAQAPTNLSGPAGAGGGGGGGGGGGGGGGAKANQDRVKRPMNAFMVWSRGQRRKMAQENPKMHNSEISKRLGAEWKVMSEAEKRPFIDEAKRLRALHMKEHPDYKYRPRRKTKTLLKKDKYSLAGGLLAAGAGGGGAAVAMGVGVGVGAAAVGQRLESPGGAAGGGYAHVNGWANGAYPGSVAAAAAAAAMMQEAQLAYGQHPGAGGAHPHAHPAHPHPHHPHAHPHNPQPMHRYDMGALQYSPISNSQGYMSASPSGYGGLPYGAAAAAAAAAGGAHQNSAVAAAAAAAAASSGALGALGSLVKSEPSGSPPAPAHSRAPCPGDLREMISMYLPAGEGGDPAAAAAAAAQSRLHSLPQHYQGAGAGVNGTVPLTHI
UniProt Q99081: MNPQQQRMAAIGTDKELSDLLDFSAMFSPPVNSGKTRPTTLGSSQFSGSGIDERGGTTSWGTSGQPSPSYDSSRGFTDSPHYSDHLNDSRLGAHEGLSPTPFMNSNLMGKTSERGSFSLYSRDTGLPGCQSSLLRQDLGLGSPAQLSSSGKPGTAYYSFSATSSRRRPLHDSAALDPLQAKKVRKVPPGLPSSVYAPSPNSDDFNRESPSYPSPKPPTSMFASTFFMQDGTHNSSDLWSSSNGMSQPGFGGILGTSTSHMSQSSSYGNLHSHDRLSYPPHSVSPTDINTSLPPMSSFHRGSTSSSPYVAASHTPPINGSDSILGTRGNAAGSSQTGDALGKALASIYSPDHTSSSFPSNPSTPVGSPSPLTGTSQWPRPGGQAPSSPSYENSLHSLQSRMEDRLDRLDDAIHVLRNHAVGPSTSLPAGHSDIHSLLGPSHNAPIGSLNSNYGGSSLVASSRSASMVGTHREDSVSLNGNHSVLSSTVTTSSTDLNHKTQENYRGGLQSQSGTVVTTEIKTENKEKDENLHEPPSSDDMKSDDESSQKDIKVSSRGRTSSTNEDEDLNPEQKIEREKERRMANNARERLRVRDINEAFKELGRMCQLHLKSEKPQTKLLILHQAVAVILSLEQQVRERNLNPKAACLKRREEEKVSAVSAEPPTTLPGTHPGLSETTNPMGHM

Biological target: T1, FLAG-NKX2-1 (UniProt P43699)
T1 sequence: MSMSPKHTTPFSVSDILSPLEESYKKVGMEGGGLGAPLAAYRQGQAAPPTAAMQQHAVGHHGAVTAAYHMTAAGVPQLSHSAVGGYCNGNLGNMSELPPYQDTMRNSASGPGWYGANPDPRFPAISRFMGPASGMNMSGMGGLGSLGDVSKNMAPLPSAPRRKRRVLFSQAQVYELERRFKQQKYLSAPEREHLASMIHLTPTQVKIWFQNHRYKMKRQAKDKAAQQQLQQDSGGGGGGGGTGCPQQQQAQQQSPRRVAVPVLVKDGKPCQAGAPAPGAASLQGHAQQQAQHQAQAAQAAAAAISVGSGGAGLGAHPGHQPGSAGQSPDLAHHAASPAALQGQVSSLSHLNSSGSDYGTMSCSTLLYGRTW
Test: affinity purification with mass spectrometry

binding, binds:
NFIB (from UniProt O00712 1-420)
SOX1 (endogenous) (from UniProt O00570 1-391)
TCF12 (from UniProt Q99081 1-682)
